Among all 410,000 compounds or so, about 18,000 (4.4%) were called active. Inconclusive means that the source gave no clear call. Such entries were picked first, then a sample of the others. Rule as the data show it: active = activity change below about -60%; inconclusive = no clear call, values can overlap the other calls; inactive = above about -39%.
Assay: qHTS Assay for inhibitors of the human cytomegalovirus (HCMV)
Settings: HFF cells, HCMV-luciferase reporter, 72 h; at 57.5 µM; active compounds read low
How it was run: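 Screen run at 2 compound doses on HFFs infected with reporter HCMV, MOI 1 PFU/cell. Luciferase activity from cell lysates at 72 h post infection gave inhibition relative to buffer-only and Salinomycin wells.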
In the case of `Cc1cc(C)c(NC(=O)c2cc3sc(Cl)cc3n2C)c(C)c1`, the activity change, negative = inhibition is reported as inactive: -0.202%.
With `Cc1ccc(C)c(NC(=O)COC(=O)CCNC(=O)c2ccco2)c1` the activity change, negative = inhibition was inconclusive: -47.8%.
For `Cc1ccc(C)c(CN2C(=O)c3ccccc3S(=O)(=O)c3ccc(C(=O)N4CCCCCC4)cc32)c1`, the activity change, negative = inhibition was inconclusive: -54.8%.
For `Cc1cccc(N2CCN(C3=NC(=O)C(=C4CCCCC4)S3)CC2)c1`, the activity change, negative = inhibition was inconclusive: -43.3%.
With `O=C(c1cccs1)N1CCc2c([nH]c3ccccc23)C1c1ccc(Cl)cc1` (centres undefined) the activity change, negative = inhibition was inconclusive: -55.5%.
In the case of `Nc1ncccc1C(=O)OCC(=O)NC1CCCCCC1`, the activity change, negative = inhibition is reported as inconclusive: 0%.
For `Cc1c(O)ccc2c3c(c(=O)oc12)CCC(C)C3` (centres undefined), the activity change, negative = inhibition was inconclusive: -56.2%.
For `CC(C)(O)/C=C/C(=O)C(C)(O)C1C(O)CC2(C)C3CC=C4C(C=C(O)C(=O)C4(C)C)C3(C)C(=O)CC12C` (centres undefined), the activity change, negative = inhibition was active: -96.9%.
In the case of `CN1Cc2cccnc2N(C)Cc2cc(Cl)ccc21`, the activity change, negative = inhibition is reported as inconclusive: -59.4%.
For `CCO[C@@H]1OC(C(=O)N2CCN(Cc3ccccc3)CC2)=C[C@H](c2ccccc2)[C@H]1CCCO`, the activity change, negative = inhibition was inactive: 6.17%.
For `CC1=CC(C)(C)N(C(=O)CCl)c2ccccc21`, the activity change, negative = inhibition was inconclusive: -44.8%.
For `Cc1onc(-c2ccccc2Cl)c1C(=O)NCc1ccc(N2CCCC2=O)cc1`, the activity change, negative = inhibition was inconclusive: -41%.
For `CNC(=O)c1ccccc1-c1cn(C)c2ccccc2c1=O`, the activity change, negative = inhibition was inactive: -5.29%.
In the case of `COc1ccc(C(=O)CSc2nc(=O)n(Cc3cccnc3)c3c2CCC3)cc1`, the activity change, negative = inhibition is reported as inactive: -27.7%.
For `CC(=O)Nc1ccc2oc(-c3ccccc3Br)nc2c1`, the activity change, negative = inhibition was inactive: 77.1%.
For `OC(C#Cc1ccccn1)c1cccs1` (centres undefined), the activity change, negative = inhibition was active: -62.2%.
With `O=C(Nc1ccc(Cn2nnc3ccccc32)cc1)c1ccco1` the activity change, negative = inhibition was inconclusive: -54.3%.
With `CCn1c(=S)[nH]c2c(c1=O)C(C)(C)Cc1ccccc1-2` the activity change, negative = inhibition was inconclusive: -54.9%.
With `C=CC#CC[N+]1(CC#Cc2ccccc2)CCOCC1` the activity change, negative = inhibition was inconclusive: -59.4%.
For `CSc1nc(Cl)c(C#N)c(-c2ccc(C)cc2)n1`, the activity change, negative = inhibition was inconclusive: -47.1%.
For `COc1cccc(C(=O)NC(=S)Nc2ccc(N3CCCC3)cc2)c1`, the activity change, negative = inhibition was inactive: 16.7%.
With `Cc1cccc(NC(=S)NC2CC3CCCC(C2)N3Cc2ccco2)c1` (centres undefined) the activity change, negative = inhibition was inconclusive: -48.9%.
In the case of `Cc1nc(C)c(-c2csc(Nc3cccc(O)c3)n2)s1`, the activity change, negative = inhibition is reported as inactive: 38.5%.
In the case of `Cn1c(NCCCN2CCOCC2)nc2c1c(=O)n(Cc1ccc(Cl)cc1Cl)c(=O)n2C`, the activity change, negative = inhibition is reported as inconclusive: -46.6%.
For `CC1=C(C)[N+](=O)C2(O)CCCCC2(C)N1[O-]` (centres undefined), the activity change, negative = inhibition was inactive: 38.8%.
With `Cc1ccc(CN(Cc2cccnc2)C(=S)Nc2cccc(Cl)c2C)cc1` the activity change, negative = inhibition was inconclusive: -48.1%.
For `Cc1nc(-c2cccnc2)sc1C(=O)Nc1ccc(C(F)(F)F)cc1`, the activity change, negative = inhibition was inconclusive: -46.2%.
With `NS(=O)(=O)c1ccc2nc(NC(=O)C3CCCO3)sc2c1` (centres undefined) the activity change, negative = inhibition was inconclusive: -43.4%.
In the case of `Cc1nc2ccccc2n1CC(=O)NN`, the activity change, negative = inhibition is reported as inconclusive: -50.8%.
With `CN(C(=O)CSc1ncnc2scc(-c3ccccc3)c12)C1CCS(=O)(=O)C1` (centres undefined) the activity change, negative = inhibition was inconclusive: -54.8%.
With `CC1(C)C=Cc2c(ccc3c2OC[C@H](c2ccc(O)cc2O)C3)O1` the activity change, negative = inhibition was inconclusive: -51.7%.
In the case of `Cc1ccc(CNC(=O)c2cc3c(C)nc4ccccc4c3o2)cc1`, the activity change, negative = inhibition is reported as active: -70%.
With `Cc1ccccc1OC(C)C(=O)N1CCN(c2ccccn2)CC1` (centres undefined) the activity change, negative = inhibition was inactive: 10.3%.
For `O=[N+]([O-])c1ccc(-c2nnc(CNC3CCCC3)o2)cc1`, the activity change, negative = inhibition was inactive: -8.68%.
With `CCC(=O)N1CCN(c2ccc(-n3c(=O)ccc4cnc5ccc(-c6cnc7ccccc7c6)cc5c43)cc2C(F)(F)F)CC1` the activity change, negative = inhibition was active: -83%.
In the case of `CCCCCC(O)(c1ccccc1)C(CN1CCOCC1)c1ccccc1` (centres undefined), the activity change, negative = inhibition is reported as active: -60.3%.
For `Cc1c(/C=N/NC(=O)C(NC(=O)c2ccc3c(c2)OCO3)C(C)C)c2ccccc2n1C` (centres undefined), the activity change, negative = inhibition was active: -80.2%.
With `COc1ccc(C2C(O)C(c3c[nH]c4ccccc34)=NN2C(=O)CCl)cc1` (centres undefined) the activity change, negative = inhibition was active: -104%.
For `COc1cc([N+](=O)[O-])c2nccnc2c1`, the activity change, negative = inhibition was inactive: -27.4%.
In the case of `O=C(c1ccccc1)c1nc[nH]c1C(=O)Nc1ccccc1`, the activity change, negative = inhibition is reported as active: -65.2%.
In the case of `CC#CC(=O)N1CCC(CCC(=O)N(C)Cc2ccccc2)CC1`, the activity change, negative = inhibition is reported as inconclusive: -48.4%.
In the case of `CCCn1cc(S(=O)(=O)c2ccccc2)c(=O)c2cc(F)c(N3CCCCCC3)cc21`, the activity change, negative = inhibition is reported as inconclusive: -45.9%.
For `CCn1cc(C(=O)NCCc2ccc(Cl)cc2)c(=O)c2ccc(C)nc21`, the activity change, negative = inhibition was inconclusive: -51.2%.
With `Cc1ccc(-n2c(=O)c(C#N)cc3c(=O)n4ccccc4nc32)cc1C` the activity change, negative = inhibition was inconclusive: -44.7%.
For `Cc1nn(Cc2ccc(C(=O)Nc3ccccc3C(F)(F)F)o2)c(C)c1Br`, the activity change, negative = inhibition was inactive: -10.4%.
With `COc1ccc2sc(N(Cc3cccnc3)C(=O)C3COc4ccccc4O3)nc2c1` (centres undefined) the activity change, negative = inhibition was inconclusive: 0%.
With `CCCCN(C)C(=O)c1oc2ccc(S(=O)(=O)N3CCCCCC3)cc2c1C` the activity change, negative = inhibition was inconclusive: -41.1%.
In the case of `Nc1c(C(=O)CSc2nc(-c3ccccc3)cs2)c(=O)[nH]c(=O)n1C1CC1`, the activity change, negative = inhibition is reported as inconclusive: -47.5%.
In the case of `COc1ccc2sc(N(Cc3cccnc3)C(=O)c3cccs3)nc2c1`, the activity change, negative = inhibition is reported as inconclusive: 0%.
With `Cc1nn(-c2ccccc2)c(N2CCCC2)c1/C=N/NC(=S)Nc1ccccc1C(F)(F)F` the activity change, negative = inhibition was inconclusive: -45.9%.
With `COc1ccc(-n2cc(CNC(C)c3ccncn3)c(-c3cccc(F)c3)n2)cc1` (centres undefined) the activity change, negative = inhibition was inconclusive: -44.4%.
For `COc1ccc(C)cc1NC(=O)CN1CCN(S(=O)(=O)c2ccc(C(C)C)cc2)CC1`, the activity change, negative = inhibition was inconclusive: -45.5%.
In the case of `COc1ccc(C(=O)N/C(=C\c2cn(S(=O)(=O)N(C)C)c3ccccc23)C(=O)NCCCN2CCOCC2)cc1`, the activity change, negative = inhibition is reported as inactive: 29.6%.
For `CC1=C(CCN2CCN(C3CCCC3)C(CCO)C2)C(C)(C)CCC1` (centres undefined), the activity change, negative = inhibition was inactive: -36.7%.
With `CCOc1cc(/C=C2/NC(=O)N(CC(=O)Nc3cccc(C)c3)C2=O)ccc1OC` the activity change, negative = inhibition was inconclusive: -42.3%.
For `C#CCOCCOCCOCCNc1nc(N2CCN(C(=O)[C@H](CCCCN)n3cc([C@@H](N)C(C)CC)nn3)CC2)nc(N2CCN(C(=O)[C@H](Cc3ccc(O)cc3)n3cc([C@@H](N)CC(C)C)nn3)CC2)n1` (some centres undefined), the activity change, negative = inhibition was inconclusive: -47.5%.
In the case of `COc1ccc(OC)c(CN(CCN2CCOCC2)C(=O)Nc2cccc(Cl)c2)c1`, the activity change, negative = inhibition is reported as inconclusive: -43.1%.
In the case of `C[C@H]1CN([C@@H](C)CO)C(=O)c2cccc(NC(=O)C3CC3)c2O[C@H]1CN(C)Cc1ccc(C(F)(F)F)cc1`, the activity change, negative = inhibition is reported as active: -88.4%.
In the case of `COc1ccc(C=NNC(=S)Nc2ccc(F)cc2)cc1OC`, the activity change, negative = inhibition is reported as active: -61.4%.
For `COC(=O)C(NC(=O)CCc1c(C)nc2cc(-c3cccc(F)c3)nn2c1C)C(C)C` (centres undefined), the activity change, negative = inhibition was inconclusive: -46.4%.
For `O=C(c1ccc(Cl)cc1Cl)N1CCN(c2ccc(N3CCOCC3)nn2)CC1`, the activity change, negative = inhibition was inconclusive: -48.1%.
For `c1ccc(Sc2cccc3ccccc23)c(CNC2=NCCN2)c1`, the activity change, negative = inhibition was active: -67.3%.
For `COc1cccc(N2CCN(C(=O)c3cc4c(=O)n(Cc5cccnc5)ccc4nc3C)CC2)c1`, the activity change, negative = inhibition was inactive: -0.0237%.
In the case of `S=C(Nc1ccccn1)Nc1ccccc1Cl`, the activity change, negative = inhibition is reported as active: -82.8%.
In the case of `COc1ccc(S(=O)(=O)Nc2ccc3c(c2)C(=O)N([C@H](C)CO)C[C@H](C)[C@@H](CN(C)S(=O)(=O)c2ccc(OC)cc2)O3)cc1`, the activity change, negative = inhibition is reported as active: -91.8%.
With `CC(=O)Nc1sc2c(c1C(c1cccc(Cl)c1)N1CCN(CCO)CC1)CCCC2` (centres undefined) the activity change, negative = inhibition was inconclusive: -42.9%.
In the case of `Cc1cc(NC(=O)c2ccccc2[N+](=O)[O-])ccc1Br`, the activity change, negative = inhibition is reported as inactive: -26.8%.
With `CCOc1ccc(-c2nnc(SCC(=O)Oc3ccccc3)o2)cc1` the activity change, negative = inhibition was inconclusive: -52.8%.
In the case of `CC(C)C(=O)N1CCC(c2nc(-c3ccc(S(=O)(=O)N4CCCC4)cc3)no2)CC1`, the activity change, negative = inhibition is reported as active: -72.9%.
In the case of `CCNc1nc(CSc2ccccc2)nc2sc(C)c(C)c12`, the activity change, negative = inhibition is reported as inconclusive: -48.5%.
In the case of `CCOC(=O)C1C(=O)NC(c2ccccc2)=NC1c1cccc(Br)c1` (centres undefined), the activity change, negative = inhibition is reported as inconclusive: -49.5%.
With `COc1ccc(NC(=O)C2(C)CCN2C(=O)c2ccccc2CCc2ccccc2)cc1OC` (centres undefined) the activity change, negative = inhibition was inactive: -29.5%.
For `COc1ccc([C@H]2C[C@H](n3cc(-c4ccc(F)cc4)nn3)[C@@H](O)CN2C(=O)C2CCCCC2)cc1`, the activity change, negative = inhibition was inconclusive: -49.2%.
With `CN(C)C(CNC(=O)c1cc(S(=O)(=O)N(C)c2ccc(F)cc2)ccc1Cl)c1ccco1` (centres undefined) the activity change, negative = inhibition was inconclusive: -40.2%.
In the case of `COc1cccc2c1O/C(=N\O)C(C(=O)Nc1cccc(C)c1C)C2` (centres undefined), the activity change, negative = inhibition is reported as inconclusive: -40.3%.
For `COc1ccc(CCC(=O)N2c3ccccc3N=C(c3ccc(C(F)(F)F)cc3)C2C(=O)NC(C)C)cc1` (centres undefined), the activity change, negative = inhibition was inactive: 2.63%.
In the case of `CCOc1ccc(NC(=O)Nc2ccc3nsnc3c2)cc1`, the activity change, negative = inhibition is reported as inconclusive: -59%.
For `COc1ccc(-n2c(SCC(=O)N3CCOCC3)nc(O)cc2=O)cc1`, the activity change, negative = inhibition was inactive: 20%.
For `COc1cc(NC(=O)C2CCCN(S(=O)(=O)c3cnc[nH]3)C2)cc(OC)c1` (centres undefined), the activity change, negative = inhibition was inactive: -21.1%.
In the case of `CC(=O)c1c(C)[nH]c(C(=O)COc2cc(C)cc(C)c2)c1C`, the activity change, negative = inhibition is reported as active: -62.2%.
With `CCC(=O)N1CCCc2cc(S(=O)(=O)N3CCN(c4ccccc4F)CC3)ccc21` the activity change, negative = inhibition was inconclusive: -42.4%.
With `Cn1c(NCCN(CCO)CCCc2ccc([N+](=O)[O-])cc2)cc(=O)n(C)c1=O` the activity change, negative = inhibition was inconclusive: -40.7%.
In the case of `CCOC(=O)C1CCCN(C(=O)Cn2ncc3c(C)n(Cc4ccc(F)cc4)c(C)c3c2=O)C1` (centres undefined), the activity change, negative = inhibition is reported as inactive: -24.7%.
With `CC(C)NC(=O)Nc1cccc2c1O[C@@H](CN(C)S(=O)(=O)c1ccc(F)cc1)[C@@H](C)CN([C@H](C)CO)C2=O` the activity change, negative = inhibition was inactive: 7.5%.
% is scaled to controls: 0 for no effect and ±100 for the full control effect.
